Experiment: peptide made by a vendor (Fmoc solid-phase peptide synthesis; HBTU)
Details: whole synthesis, HPLC A/A %

Substance	final HPLC purity
Pyr Lac50-83	>92%
Pyr Lac50-94	>90%
